This is one part of the list.
Assays:
Assay in all cases: log2 fold change, soluble protein after heating vs DMSO (PISA); higher = thermal stabilisation; K562 lysate, 10 uM; active = over 0.2 and 3.5 SD of the protein, either way, in both replicates (recomputed)
[1] = compound: C1=CC=C(C=C1)[C@H](COC2=CC3=C(C=C2)NC(=O)N3)NC(=O)C4=CC=CN(C4=O)CC5=CC(=C(C=C5)F)F
Method in brief: (§1)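 Pellets of K562 cells were dounce-homogenised in PBS pH 7.4 with 1 mM MgCl2, and the crude extract was held at 1 mg/mL protein for a 30 min treatment with 10 μM compound. Aliquots were heated for 3 min over 48°C-58°C and pooled before NP-40 was added to 0.5% at 4°C. The supernatant from 21,000xg for 90 min was quantified by TMTpro 16plex LC-MS/MS with channel sums equalised. Values are reported from duplicates as log-two fold change in thermal stability relative to solvent controls.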

The chains behind the UniProt entries cited, without tags or fusion partners. Where a name states a change or a piece, a line headed by the entry shows the natural chain unless it says otherwise.
UniProt Q9NVH1: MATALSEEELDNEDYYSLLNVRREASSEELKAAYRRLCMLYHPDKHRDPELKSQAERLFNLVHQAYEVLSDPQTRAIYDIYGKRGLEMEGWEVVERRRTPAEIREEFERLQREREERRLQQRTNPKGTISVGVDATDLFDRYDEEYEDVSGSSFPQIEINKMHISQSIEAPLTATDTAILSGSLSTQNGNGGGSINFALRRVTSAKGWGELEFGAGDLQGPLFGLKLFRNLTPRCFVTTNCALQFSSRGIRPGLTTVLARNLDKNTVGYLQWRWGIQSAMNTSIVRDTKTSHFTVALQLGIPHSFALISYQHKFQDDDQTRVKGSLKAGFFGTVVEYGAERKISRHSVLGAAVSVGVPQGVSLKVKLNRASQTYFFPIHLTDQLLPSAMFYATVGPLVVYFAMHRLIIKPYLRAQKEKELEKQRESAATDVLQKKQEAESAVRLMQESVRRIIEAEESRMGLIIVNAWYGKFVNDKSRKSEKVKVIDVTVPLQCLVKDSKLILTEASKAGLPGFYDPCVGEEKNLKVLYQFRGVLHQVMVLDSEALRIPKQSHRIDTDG
UniProt Q86Y56: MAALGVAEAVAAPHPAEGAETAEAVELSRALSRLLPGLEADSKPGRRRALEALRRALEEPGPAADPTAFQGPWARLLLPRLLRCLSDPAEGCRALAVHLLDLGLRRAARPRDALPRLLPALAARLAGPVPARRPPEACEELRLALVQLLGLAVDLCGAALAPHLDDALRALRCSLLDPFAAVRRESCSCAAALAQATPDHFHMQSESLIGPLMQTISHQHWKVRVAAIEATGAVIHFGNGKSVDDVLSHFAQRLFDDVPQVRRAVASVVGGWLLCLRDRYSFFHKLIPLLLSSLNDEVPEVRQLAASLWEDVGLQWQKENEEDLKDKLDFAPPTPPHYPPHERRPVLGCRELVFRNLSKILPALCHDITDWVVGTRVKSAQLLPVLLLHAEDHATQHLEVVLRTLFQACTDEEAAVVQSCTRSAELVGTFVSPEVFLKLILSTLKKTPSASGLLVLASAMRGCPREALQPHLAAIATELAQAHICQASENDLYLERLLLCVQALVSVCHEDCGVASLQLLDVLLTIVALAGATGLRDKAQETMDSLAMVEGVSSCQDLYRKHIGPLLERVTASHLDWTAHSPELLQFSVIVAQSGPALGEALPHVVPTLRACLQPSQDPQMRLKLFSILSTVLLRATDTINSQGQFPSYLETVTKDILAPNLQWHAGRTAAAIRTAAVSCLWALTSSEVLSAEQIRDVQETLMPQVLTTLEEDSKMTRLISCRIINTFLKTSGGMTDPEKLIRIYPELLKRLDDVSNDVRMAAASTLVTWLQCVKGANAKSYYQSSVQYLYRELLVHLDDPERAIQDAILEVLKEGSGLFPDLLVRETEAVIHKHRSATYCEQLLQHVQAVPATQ
UniProt Q5JSL3: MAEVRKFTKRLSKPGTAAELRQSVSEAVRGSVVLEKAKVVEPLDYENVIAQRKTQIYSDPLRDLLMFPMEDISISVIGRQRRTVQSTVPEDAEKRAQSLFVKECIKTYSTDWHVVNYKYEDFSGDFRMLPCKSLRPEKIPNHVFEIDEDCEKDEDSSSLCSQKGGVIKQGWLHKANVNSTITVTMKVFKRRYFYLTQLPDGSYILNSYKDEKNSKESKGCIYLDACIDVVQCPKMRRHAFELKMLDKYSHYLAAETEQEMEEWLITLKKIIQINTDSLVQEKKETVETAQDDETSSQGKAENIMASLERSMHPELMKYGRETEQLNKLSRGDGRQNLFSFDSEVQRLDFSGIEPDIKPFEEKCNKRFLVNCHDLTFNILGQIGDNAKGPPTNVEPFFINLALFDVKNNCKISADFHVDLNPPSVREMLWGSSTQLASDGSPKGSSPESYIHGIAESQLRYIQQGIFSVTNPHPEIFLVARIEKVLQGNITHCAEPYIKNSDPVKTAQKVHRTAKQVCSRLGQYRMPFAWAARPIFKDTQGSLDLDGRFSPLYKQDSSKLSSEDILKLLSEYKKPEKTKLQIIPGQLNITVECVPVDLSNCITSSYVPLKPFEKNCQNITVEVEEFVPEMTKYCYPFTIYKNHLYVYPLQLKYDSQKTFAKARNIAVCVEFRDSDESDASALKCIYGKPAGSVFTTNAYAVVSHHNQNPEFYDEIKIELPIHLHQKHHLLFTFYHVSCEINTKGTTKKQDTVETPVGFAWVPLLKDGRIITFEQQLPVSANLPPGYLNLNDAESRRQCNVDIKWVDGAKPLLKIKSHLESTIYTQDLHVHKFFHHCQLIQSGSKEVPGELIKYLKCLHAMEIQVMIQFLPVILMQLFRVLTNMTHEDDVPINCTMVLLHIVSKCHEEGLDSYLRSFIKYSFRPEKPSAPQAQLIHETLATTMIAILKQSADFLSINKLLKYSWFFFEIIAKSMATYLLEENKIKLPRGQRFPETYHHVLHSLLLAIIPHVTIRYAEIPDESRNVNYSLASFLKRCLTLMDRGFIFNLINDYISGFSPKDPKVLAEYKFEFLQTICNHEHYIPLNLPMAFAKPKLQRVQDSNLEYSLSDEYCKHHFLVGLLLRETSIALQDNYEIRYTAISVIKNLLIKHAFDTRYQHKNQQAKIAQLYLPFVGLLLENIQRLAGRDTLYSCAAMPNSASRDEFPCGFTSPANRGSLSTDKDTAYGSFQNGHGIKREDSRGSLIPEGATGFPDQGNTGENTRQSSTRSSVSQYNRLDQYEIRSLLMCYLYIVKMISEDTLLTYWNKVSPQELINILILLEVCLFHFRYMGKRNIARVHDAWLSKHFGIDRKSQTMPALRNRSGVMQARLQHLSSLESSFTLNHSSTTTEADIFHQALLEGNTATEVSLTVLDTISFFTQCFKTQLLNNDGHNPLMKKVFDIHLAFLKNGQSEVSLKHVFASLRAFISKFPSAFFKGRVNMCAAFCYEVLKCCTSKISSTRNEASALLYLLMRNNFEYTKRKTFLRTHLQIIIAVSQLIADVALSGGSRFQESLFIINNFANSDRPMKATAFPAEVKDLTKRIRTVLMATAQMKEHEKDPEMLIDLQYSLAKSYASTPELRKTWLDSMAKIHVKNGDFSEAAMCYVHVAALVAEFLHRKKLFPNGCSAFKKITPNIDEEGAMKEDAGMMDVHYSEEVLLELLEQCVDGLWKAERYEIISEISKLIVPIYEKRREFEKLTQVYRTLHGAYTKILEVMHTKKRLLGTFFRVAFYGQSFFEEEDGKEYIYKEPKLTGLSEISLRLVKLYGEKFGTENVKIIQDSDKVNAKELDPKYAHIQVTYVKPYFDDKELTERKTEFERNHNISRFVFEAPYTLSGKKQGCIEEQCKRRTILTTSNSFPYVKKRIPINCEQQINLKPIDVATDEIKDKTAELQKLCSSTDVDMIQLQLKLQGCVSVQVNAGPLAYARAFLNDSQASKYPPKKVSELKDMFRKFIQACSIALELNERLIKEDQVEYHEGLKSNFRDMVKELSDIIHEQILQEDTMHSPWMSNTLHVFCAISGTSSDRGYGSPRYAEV
UniProt Q9Y2H0: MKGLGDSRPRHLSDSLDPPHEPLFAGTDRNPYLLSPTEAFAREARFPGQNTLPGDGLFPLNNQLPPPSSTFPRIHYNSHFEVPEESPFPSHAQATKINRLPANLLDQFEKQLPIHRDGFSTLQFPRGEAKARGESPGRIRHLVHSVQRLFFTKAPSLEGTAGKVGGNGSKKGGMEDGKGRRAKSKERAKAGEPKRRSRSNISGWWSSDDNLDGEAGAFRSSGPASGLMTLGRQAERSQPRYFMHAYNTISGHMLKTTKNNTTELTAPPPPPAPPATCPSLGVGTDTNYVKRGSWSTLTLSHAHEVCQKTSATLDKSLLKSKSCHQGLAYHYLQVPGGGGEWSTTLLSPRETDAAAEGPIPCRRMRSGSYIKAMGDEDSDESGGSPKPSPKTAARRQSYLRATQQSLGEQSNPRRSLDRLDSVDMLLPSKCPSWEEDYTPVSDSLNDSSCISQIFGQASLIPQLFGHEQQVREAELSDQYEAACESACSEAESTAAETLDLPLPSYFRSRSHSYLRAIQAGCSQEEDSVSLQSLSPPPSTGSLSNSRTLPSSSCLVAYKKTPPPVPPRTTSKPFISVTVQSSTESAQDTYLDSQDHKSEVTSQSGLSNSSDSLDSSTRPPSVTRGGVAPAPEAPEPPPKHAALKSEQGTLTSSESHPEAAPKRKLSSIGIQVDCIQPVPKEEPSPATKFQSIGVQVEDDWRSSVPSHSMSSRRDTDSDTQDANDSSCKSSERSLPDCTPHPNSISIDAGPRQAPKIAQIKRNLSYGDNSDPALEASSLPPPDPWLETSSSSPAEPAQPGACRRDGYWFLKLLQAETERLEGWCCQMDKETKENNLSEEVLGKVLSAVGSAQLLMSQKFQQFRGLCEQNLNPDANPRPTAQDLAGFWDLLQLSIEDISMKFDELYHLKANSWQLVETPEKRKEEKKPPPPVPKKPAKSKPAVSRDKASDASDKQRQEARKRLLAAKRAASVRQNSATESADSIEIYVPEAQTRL
UniProt Q8WXX5: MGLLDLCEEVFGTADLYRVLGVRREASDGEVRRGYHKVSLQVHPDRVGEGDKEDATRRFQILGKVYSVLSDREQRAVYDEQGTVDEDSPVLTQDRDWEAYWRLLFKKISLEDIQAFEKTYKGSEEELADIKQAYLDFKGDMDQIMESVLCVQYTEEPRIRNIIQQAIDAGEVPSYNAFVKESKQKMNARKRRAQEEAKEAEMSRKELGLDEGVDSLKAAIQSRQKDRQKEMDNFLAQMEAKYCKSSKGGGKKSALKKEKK
UniProt Q9H3Z4: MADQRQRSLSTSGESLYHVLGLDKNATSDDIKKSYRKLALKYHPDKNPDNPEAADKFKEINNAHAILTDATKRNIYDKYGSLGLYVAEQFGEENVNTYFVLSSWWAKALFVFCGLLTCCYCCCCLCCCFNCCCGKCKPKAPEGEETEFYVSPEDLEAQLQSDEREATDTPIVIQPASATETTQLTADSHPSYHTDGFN
UniProt Q99704: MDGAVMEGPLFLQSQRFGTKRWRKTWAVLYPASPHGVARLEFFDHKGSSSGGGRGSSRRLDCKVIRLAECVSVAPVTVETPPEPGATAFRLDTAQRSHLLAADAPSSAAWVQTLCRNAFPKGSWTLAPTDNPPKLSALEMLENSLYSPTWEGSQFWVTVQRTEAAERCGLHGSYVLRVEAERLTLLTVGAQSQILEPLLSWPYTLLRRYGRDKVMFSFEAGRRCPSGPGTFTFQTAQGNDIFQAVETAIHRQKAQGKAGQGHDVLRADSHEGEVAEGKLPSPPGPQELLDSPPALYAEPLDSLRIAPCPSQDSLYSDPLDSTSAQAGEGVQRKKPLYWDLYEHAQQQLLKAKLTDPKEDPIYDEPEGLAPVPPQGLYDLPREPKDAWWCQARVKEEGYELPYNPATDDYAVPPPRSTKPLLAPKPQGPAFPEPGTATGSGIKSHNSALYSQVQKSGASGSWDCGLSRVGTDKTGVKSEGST
UniProt O75911: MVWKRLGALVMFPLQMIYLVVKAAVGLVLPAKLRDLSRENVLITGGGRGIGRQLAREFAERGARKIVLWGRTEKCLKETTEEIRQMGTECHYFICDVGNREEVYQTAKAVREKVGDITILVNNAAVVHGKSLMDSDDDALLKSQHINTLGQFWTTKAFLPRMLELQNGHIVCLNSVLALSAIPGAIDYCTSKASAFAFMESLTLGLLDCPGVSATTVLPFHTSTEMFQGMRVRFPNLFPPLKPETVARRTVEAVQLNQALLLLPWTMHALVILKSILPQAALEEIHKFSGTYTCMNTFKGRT
UniProt Q9UKB3: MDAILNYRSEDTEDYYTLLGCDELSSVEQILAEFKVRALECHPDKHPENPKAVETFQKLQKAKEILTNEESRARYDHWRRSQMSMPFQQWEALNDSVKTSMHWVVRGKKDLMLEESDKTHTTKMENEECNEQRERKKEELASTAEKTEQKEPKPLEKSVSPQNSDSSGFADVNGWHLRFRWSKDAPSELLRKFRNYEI
UniProt O76075: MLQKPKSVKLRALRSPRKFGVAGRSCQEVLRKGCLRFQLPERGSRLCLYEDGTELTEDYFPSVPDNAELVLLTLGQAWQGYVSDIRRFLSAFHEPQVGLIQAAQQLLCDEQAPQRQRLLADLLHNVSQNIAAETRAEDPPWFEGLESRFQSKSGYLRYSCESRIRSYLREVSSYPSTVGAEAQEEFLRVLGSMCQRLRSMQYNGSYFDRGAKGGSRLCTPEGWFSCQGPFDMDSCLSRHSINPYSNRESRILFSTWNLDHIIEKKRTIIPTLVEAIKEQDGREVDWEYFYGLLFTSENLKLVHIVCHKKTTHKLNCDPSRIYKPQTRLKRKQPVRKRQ
UniProt P25686: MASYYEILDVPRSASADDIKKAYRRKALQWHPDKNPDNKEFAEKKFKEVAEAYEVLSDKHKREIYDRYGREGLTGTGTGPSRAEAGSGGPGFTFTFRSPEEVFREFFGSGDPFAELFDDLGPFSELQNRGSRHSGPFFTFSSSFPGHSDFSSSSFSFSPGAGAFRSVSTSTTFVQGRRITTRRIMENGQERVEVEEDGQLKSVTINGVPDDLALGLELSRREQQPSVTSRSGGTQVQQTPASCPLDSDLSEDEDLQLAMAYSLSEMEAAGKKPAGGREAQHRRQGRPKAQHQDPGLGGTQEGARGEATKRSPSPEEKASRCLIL

[2] = compound: CC1=C(SC2=C1C(=N[C@H](C3=NN=C(N32)C)CC(=O)N)C4=CC=C(C=C4)Cl)C
Method in brief: as §1

[3] = compound: CC1=C2C(=CC=C1)N=C(N(C2=O)C3=CC=CC=C3C)CN4C=NC5=C(N=CN=C54)N
Method in brief: as §1

[4] = compound: Cc1sc2c(c1C)C(c1ccc(Cl)cc1)=N[C@@H](CC(=O)OC(C)(C)C)c1nnc(C)n1-2
Method in brief: as §1

[5] = compound: c1ccc([C@@H]2C[C@H]2NC2CCNCC2)cc1
Method in brief: as §1

Measured: log2 fold change

DMD (UniProt P11532)
inactive: [1] -0.02 | [2] 0.009 | [3] 0.007 | [4] -0.007 | [5] -0.016

DOCK7 (UniProt Q96N67)
inactive: [1] 0.071 | [2] 0.095 | [3] -0.017 | [4] -0.011 | [5] 0.012

DLG5 (UniProt Q8TDM6)
inactive: [1] -0.1 | [2] 0.002 | [3] 0.247 | [4] -0.4

DKC1 (UniProt O60832)
inactive: [1] -0.037 | [2] 0.028 | [3] 0.002 | [4] -0.032 | [5] -0.039

DHRS7B (UniProt Q6IAN0)
inactive: [1] 0.111 | [2] 0.009 | [3] 0.049 | [4] -0.002 | [5] -0.036

DLAT (UniProt P10515)
inactive: [1] -0.034 | [2] 0.002 | [3] -0.014 | [4] -0.089 | [5] -0.023

DNAJC11 (UniProt Q9NVH1)
inactive: [1] -0.022 | [2] 0.038 | [3] 0.031 | [4] 0.02 | [5] 0.022

DNAAF5 (UniProt Q86Y56)
inactive: [1] -0.054 | [2] 0.038 | [3] -0.005 | [4] 0.016 | [5] 0.064

DMTF1 (UniProt Q9Y222)
inactive: [1] 0.081 | [2] -0.059 | [3] 0.134 | [4] 0.147 | [5] -0.075

DOCK11 (UniProt Q5JSL3)
inactive: [1] 0.001 | [2] 0.012 | [3] 0.051 | [4] -0.013 | [5] -0.005

DNM1L isoform 6 (UniProt O00429)
inactive: [1] 0.001 | [2] 0.03 | [3] 0.039 | [4] 0.021 | [5] 0.038

DLGAP4 (UniProt Q9Y2H0)
inactive: [1] 0.046 | [2] -0.02 | [3] -0.105 | [4] -0.003 | [5] -0.023

DNAH9 (UniProt Q9NYC9)
inactive: [1] -0.024 | [2] 0.027 | [3] -0.031 | [4] -0.02 | [5] -0.023

DNAJC9 (UniProt Q8WXX5)
inactive: [1] -0.002 | [2] 0.01 | [3] -0.049 | [4] 0.004 | [5] 0.019

DHX38 (UniProt Q92620)
inactive: [1] 0.029 | [2] -0.024 | [3] -0.005 | [4] 0.007 | [5] 0.026

DNAJC5 (UniProt Q9H3Z4)
inactive: [1] 0.032 | [2] -0.015 | [3] -0.034 | [4] 0.009 | [5] -0.308

DLG3 isoform 2 (UniProt Q92796)
inactive: [1] 0 | [2] -0.082 | [3] -0.085 | [4] 0.019 | [5] 0.048

DLD (UniProt P09622)
inactive: [1] 0.005 | [2] -0.017 | [3] 0.008 | [4] -0.022 | [5] -0.076

DNASE2 (UniProt O00115)
inactive: [1] 0.005 | [2] -0.039 | [3] -0.072 | [4] 0.035 | [5] -0.001

DNAJB14 (UniProt Q8TBM8)
inactive: [1] 0.059 | [2] -0.043 | [3] 0.086 | [4] -0.037 | [5] 0.034

DIEXF (UniProt Q68CQ4)
inactive: [1] -0.068 | [2] 0.099 | [3] -0.015 | [4] -0.003 | [5] 0.004

DHRS11 (UniProt Q6UWP2)
inactive: [1] -0.004 | [2] 0.012 | [3] 0.018 | [4] 0.013 | [5] 0.014

DNAJC21 isoform 3 (UniProt Q5F1R6)
inactive: [1] 0.011 | [2] -0.033 | [3] 0.059 | [4] 0 | [5] 0.06

DNAH10 (UniProt Q8IVF4)
inactive: [1] 0.069 | [2] 0.014 | [3] 0.095 | [4] -0.081 | [5] -0.274

DOHH (UniProt Q9BU89)
inactive: [1] 0.007 | [2] -0.02 | [3] 0.025 | [4] -0.068 | [5] 0.011

DHCR7 (UniProt Q9UBM7)
inactive: [1] -0.107 | [2] 0.028 | [3] -0.031 | [4] -0.045 | [5] 0.091

DOK1 (UniProt Q99704)
inactive: [1] 0.048 | [2] -0.024 | [3] -0.005 | [4] 0.064 | [5] -0.036

DNPEP (UniProt Q9ULA0)
inactive: [1] 0.023 | [2] 0.016 | [3] -0.022 | [4] -0.038 | [5] -0.014

DHRS3 (UniProt O75911)
inactive: [1] 0.073 | [2] 0.064 | [3] -0.091 | [4] 0.018 | [5] -0.004

DNAJB6 (UniProt O75190)
inactive: [1] -0.037 | [2] 0.006 | [3] -0.028 | [4] -0.063 | [5] -0.026

DHODH (UniProt Q02127)
inactive: [1] 0.037 | [2] -0.001 | [3] 0.007 | [4] 0.014 | [5] -0.017

DNAJA1 (UniProt P31689)
inactive: [1] 0.013 | [2] -0.008 | [3] -0.025 | [4] -0.016 | [5] -0.036

DMXL2 isoform 3 (UniProt Q8TDJ6)
inactive: [1] 0.018 | [2] -0.08 | [3] 0.055 | [4] 0.092 | [5] 0.033

DNAJB12 (UniProt Q9NXW2)
inactive: [1] -0.086 | [2] -0.005 | [3] 0.017 | [4] -0.026 | [5] 0.058

DOK3 (UniProt Q7L591)
inactive: [1] 0.025 | [2] 0.028 | [3] 0 | [4] 0.074 | [5] -0.04

DHX37 (UniProt Q8IY37)
inactive: [1] -0.15 | [2] 0.074 | [3] 0.028 | [4] 0.063 | [5] 0.136

13 neighbouring records out of the list so far:
DHRS11 (UniProt Q6UWP2)
inactive: [1] -0.004 | [2] 0.012 | [3] 0.018 | [4] 0.013 | [5] 0.014

DNAJC21 isoform 3 (UniProt Q5F1R6)
inactive: [1] 0.011 | [2] -0.033 | [3] 0.059 | [4] 0 | [5] 0.06

DNAH10 (UniProt Q8IVF4)
inactive: [1] 0.069 | [2] 0.014 | [3] 0.095 | [4] -0.081 | [5] -0.274

DOHH (UniProt Q9BU89)
inactive: [1] 0.007 | [2] -0.02 | [3] 0.025 | [4] -0.068 | [5] 0.011

DHCR7 (UniProt Q9UBM7)
inactive: [1] -0.107 | [2] 0.028 | [3] -0.031 | [4] -0.045 | [5] 0.091

DOK1 (UniProt Q99704)
inactive: [1] 0.048 | [2] -0.024 | [3] -0.005 | [4] 0.064 | [5] -0.036

DNPEP (UniProt Q9ULA0)
inactive: [1] 0.023 | [2] 0.016 | [3] -0.022 | [4] -0.038 | [5] -0.014

DHRS3 (UniProt O75911)
inactive: [1] 0.073 | [2] 0.064 | [3] -0.091 | [4] 0.018 | [5] -0.004

DNAJB6 (UniProt O75190)
inactive: [1] -0.037 | [2] 0.006 | [3] -0.028 | [4] -0.063 | [5] -0.026

DHODH (UniProt Q02127)
inactive: [1] 0.037 | [2] -0.001 | [3] 0.007 | [4] 0.014 | [5] -0.017

DNAJA1 (UniProt P31689)
inactive: [1] 0.013 | [2] -0.008 | [3] -0.025 | [4] -0.016 | [5] -0.036

DMXL2 isoform 3 (UniProt Q8TDJ6)
inactive: [1] 0.018 | [2] -0.08 | [3] 0.055 | [4] 0.092 | [5] 0.033

DNAJB12 (UniProt Q9NXW2)
inactive: [1] -0.086 | [2] -0.005 | [3] 0.017 | [4] -0.026 | [5] 0.058

(continued)

DHX34 (UniProt Q14147)
inactive: [1] -0.141 | [2] 0.108 | [3] 0.283 | [4] 0.098 | [5] -0.06

DNAH12 (UniProt Q6ZR08)
inactive: [1] 0.02 | [2] 0.121 | [3] -0.042 | [4] -0.018 | [5] -0.099

DNAJC12 (UniProt Q9UKB3)
inactive: [1] 0.052 | [2] -0.047 | [3] -0.032 | [4] -0.029 | [5] -0.074

DOCK8 (UniProt Q8NF50)
inactive: [1] -0.011 | [2] -0.004 | [3] 0.013 | [4] 0.005 | [5] 0.05

DOLPP1 (UniProt Q86YN1)
inactive: [1] 0.05 | [2] -0.062 | [3] -0.111 | [4] 0.043 | [5] -0.147

DIAPH1 (UniProt O60610)
inactive: [1] -0.005 | [2] 0.013 | [3] 0.015 | [4] 0.007 | [5] 0.023

DGKZ (UniProt Q13574)
inactive: [1] -0.031 | [2] -0.053 | [3] -0.046 | [4] 0.014 | [5] 0.069

DGAT1 (UniProt O75907)
inactive: [1] 0.008 | [2] -0.019 | [3] 0.012 | [4] -0.061 | [5] -0.001

DOCK10 (UniProt Q96BY6)
inactive: [1] 0.053 | [2] -0.018 | [3] 0.062 | [4] -0.109 | [5] -0.491

DIS3L2 (UniProt Q8IYB7)
inactive: [1] -0.023 | [2] 0.015 | [3] 0.067 | [4] 0.029 | [5] 0.034

DFFB (UniProt O76075)
inactive: [1] 0.06 | [2] -0.057 | [3] 0.061 | [4] -0.032 | [5] 0.081

DLST (UniProt P36957)
inactive: [1] 0.048 | [2] -0.034 | [3] 0.028 | [4] -0.025 | [5] -0.005

DHPS (UniProt P49366)
inactive: [1] 0.018 | [2] 0.019 | [3] -0.002 | [4] -0.043 | [5] -0.054

DNAJC3 (UniProt Q13217)
inactive: [1] 0.06 | [2] -0.073 | [3] -0.003 | [4] -0.01 | [5] 0.031

DMXL1 (UniProt Q9Y485)
inactive: [1] 0.011 | [2] 0.01 | [3] 0 | [4] -0.005 | [5] 0.016

DNAJB2 (UniProt P25686)
inactive: [1] -0.17 | [2] 0.002 | [3] 0.041 | [4] -0.111 | [5] 0.044

DIPK2A (UniProt Q8NDZ4)
inactive: [1] 0.052 | [2] -0.045 | [3] -0.052 | [4] 0.052 | [5] 0.036
